Experimental data published in article PMC8390522.
These are yes or no findings as the source states them, for the method shown. Some binding calls cover weakened binding; strength is not graded here.

The chains behind the UniProt entries cited, without tags or fusion partners.
UniProt P26527: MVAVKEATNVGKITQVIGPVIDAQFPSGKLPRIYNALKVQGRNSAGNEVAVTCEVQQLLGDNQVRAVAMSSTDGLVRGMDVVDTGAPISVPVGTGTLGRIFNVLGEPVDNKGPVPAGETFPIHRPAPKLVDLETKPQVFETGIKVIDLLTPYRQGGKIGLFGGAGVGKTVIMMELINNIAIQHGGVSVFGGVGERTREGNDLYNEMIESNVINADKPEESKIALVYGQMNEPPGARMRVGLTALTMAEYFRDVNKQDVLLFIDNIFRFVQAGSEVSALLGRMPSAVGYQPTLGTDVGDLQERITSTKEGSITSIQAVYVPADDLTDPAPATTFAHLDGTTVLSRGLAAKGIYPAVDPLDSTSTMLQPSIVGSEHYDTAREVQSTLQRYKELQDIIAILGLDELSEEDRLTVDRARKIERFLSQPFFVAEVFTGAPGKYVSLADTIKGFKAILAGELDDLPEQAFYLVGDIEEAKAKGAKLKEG
UniProt P27182: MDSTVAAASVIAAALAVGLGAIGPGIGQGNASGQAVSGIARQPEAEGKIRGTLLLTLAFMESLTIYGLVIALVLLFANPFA
UniProt P27179: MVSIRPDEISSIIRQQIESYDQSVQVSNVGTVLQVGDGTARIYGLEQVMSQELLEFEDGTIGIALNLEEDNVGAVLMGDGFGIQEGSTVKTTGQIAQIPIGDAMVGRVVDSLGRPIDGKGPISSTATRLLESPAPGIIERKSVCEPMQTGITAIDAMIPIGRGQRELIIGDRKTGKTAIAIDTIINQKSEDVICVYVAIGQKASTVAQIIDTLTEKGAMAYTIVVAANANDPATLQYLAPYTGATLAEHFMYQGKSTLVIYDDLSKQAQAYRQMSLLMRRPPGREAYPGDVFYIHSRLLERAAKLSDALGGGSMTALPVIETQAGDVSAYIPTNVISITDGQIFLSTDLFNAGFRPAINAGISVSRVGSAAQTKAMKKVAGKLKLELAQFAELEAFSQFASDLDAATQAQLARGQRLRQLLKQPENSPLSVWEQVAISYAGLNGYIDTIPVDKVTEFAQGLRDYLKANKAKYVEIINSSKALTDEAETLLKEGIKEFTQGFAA

Target: β subunit of FoF1 ATP synthase of Synechocystis sp. PCC 6803 with an N-terminal His10-tag (Synechocystis sp. PCC 6803) (UniProt P26527)
Assay: co-purification by Ni-affinity chromatography; thylakoid membranes solubilised with 1% LMNG; FoF1 held by the His10-tag of the β subunit, 10 mM potassium phosphate pH 8.0, 100 mM K2SO4, 0.1 mM MgCl2, 0.1 mM ADP, 0.005% LMNG, 60 to 200 mM imidazole; bands of the SDS-PAGE gel identified by peptide mass fingerprinting, N-terminal sequencing or immunoblot

binding | Substance
binds | c subunit of FoF1 ATP synthase of Synechocystis sp. PCC 6803 (from UniProt P27182 1-81)
binds | α subunit of FoF1 ATP synthase of Synechocystis sp. PCC 6803 (from UniProt P27179 1-503)
